Test results as given in PubChem BioAssay AID1487 (National Center for Advancing Translational Sciences (NCATS), 2009).
The list shows a part of the results. Further columns of the screen follow, without active or inactive calls. Most of these compounds were active or inconclusive in the main read-out, so they are no random draw. The note in brackets gives the kind of curve behind each potency; many fits are weak.

Test: qHTS Assay for Modulators of Lamin A Splicing
Conditions: HeLa LMNA splicing GFP/RFP minigene ratio, 48 h
How it was run: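 S3 HeLa stable clones carrying a lamin A-EGFP splicing minigene plus DsRed2 were seeded at 600 cells/well in Opti-MEM with 2% FBS, pin-dosed and incubated 48 h at 37°C. Acumen cytometry (488 nm) gave the GFP/RFP total-intensity ratio.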

[1] = measured here: GFP splicing reporter channel
[2] = measured here: RFP viability control channel

Structure (SMILES) | AC50 [1] | AC50 [2]
Cc1cc(C(=O)N2CCc3ccccc32)c2ccccc2n1 | 22.4 µM [rising, partial curve, poor fit] | 14.1 µM [rising, partial curve, poor fit]
O=C1CC(c2cc(Br)ccc2F)c2cc3c(cc2N1)CCC3 (stereo not drawn) | 5.01 µM [falling, full curve] | 4.47 µM [falling, full curve]
COc1ccc(-c2nc(C)c(CCNC(=O)C(=O)Nc3ccccc3OC)s2)cc1 | 44.7 µM [falling, partial curve, poor fit] | –
Cc1ccc(C(C)C)c(OCC(=O)NCC2(N(C)C)CCCCC2)c1 | 0.0178 µM [rising, full curve, poor fit] | –
COc1ccc(S(=O)(=O)Nc2ccc3c(c2)N(C(C)=O)CCC3)cc1F | 0.00447 µM [rising, full curve, poor fit] | 12.6 µM [rising, partial curve, poor fit]
COc1ccc(OC)c2sc(N3CCN(C(=O)C(C)(C)C)CC3)nc12 | 0.355 µM [falling, partial curve, poor fit] | –
Clc1ccc(Sc2cc(Cl)c(-c3ccccc3)nn2)cc1 | – | 22.4 µM [falling, single point]
COc1ccc2c(c1)Cc1sc(NC(=O)c3cccs3)nc1-2 | – | 11.2 µM [rising, partial curve]
Cc1cccc(-c2nc(CSCC(=O)N3CCN(Cc4ccc5c(c4)OCO5)CC3)c(C)o2)c1 | – | 10 µM [rising, partial curve]
Cc1cccc(Oc2nc3c(C)cccn3c(=O)c2/C=C(\C#N)c2nc3ccccc3[nH]2)c1 | – | 0.0282 µM [falling, full curve]
Cc1cccc(C(=O)N[C@H](C(=O)Nc2nc(C)cs2)C(C)C)c1 | – | 20 µM [rising, single point]
CC(=O)c1c(OC(=O)c2ccccc2Br)ccc2c(C)cc(=O)oc12 | – | 35.5 µM [rising, single point]
O=c1c2cc3ccccc3n2cnn1Cc1ccccc1F | – | 10 µM [falling, partial curve, poor fit]
COCCn1c(SCC(=O)c2ccc3c(c2)OCCO3)nnc1-c1ccoc1C | 12.6 µM [rising, single point] | 15.8 µM [rising, single point]
Cc1cc(C)c2nc(-c3ccccn3)cc(C(=O)NCc3ccc(S(N)(=O)=O)cc3)c2c1 | – | 31.6 µM [rising, single point]
Cc1cc(Nc2ccc3c(c2)OCCO3)c2cc(Cl)ccc2n1 | – | 11.2 µM [rising, single point]
O=C(Cn1cc(S(=O)(=O)Cc2ccccc2)c2ccccc21)Nc1ccccc1 | – | 15.8 µM [rising, single point]
Cc1nn(C)c(Cl)c1/C=N/OC(=O)c1ccc(F)cc1 | 1.26 µM [falling, full curve, poor fit] | –
CCNC(=S)N/N=C/c1ccccc1[N+](=O)[O-] | – | 5.01 µM [rising, partial curve]

Single values from the entries so far:
Value for CCNC(=S)N/N=C/c1ccccc1[N+](=O)[O-] under AC50 [2]: 5.01 µM [rising, partial curve]
Value for Cc1nn(C)c(Cl)c1/C=N/OC(=O)c1ccc(F)cc1 under AC50 [1]: 1.26 µM [falling, full curve, poor fit]
Value for COc1ccc2c(c1)Cc1sc(NC(=O)c3cccs3)nc1-2 under AC50 [2]: 11.2 µM [rising, partial curve]

The listing continues:

Structure (SMILES) | AC50 [1] | AC50 [2]
Cc1ccc2[nH]c(-c3cccc(F)c3)cc(=O)c2c1 | 28.2 µM [rising, single point] | 2.82 µM [rising, partial curve]
COc1ccc(CN(C)Cc2nc(Cc3cccc(F)c3)no2)c2cccnc12 | 0.0891 µM [falling, full curve, poor fit] | –
CCOC(=O)COc1cccc2c(=O)n(CC(=O)NCc3ccc4c(c3)OCO4)ccc12 | – | 3.98 µM [rising, full curve]
O=[N+]([O-])c1ccc(Sc2ccc(Cl)c(Cl)c2)nc1 | 22.4 µM [falling, single point] | 35.5 µM [falling, single point]
O=C(c1ccc2ccccc2c1)N1CCN(c2ccc(C(F)(F)F)cn2)CC1 | – | 15.8 µM [rising, single point]
CCOc1cc(CNC(=O)C2COc3ccccc3C2)cc(OCC)c1OCC (stereo not drawn) | 35.5 µM [falling, single point] | –
O=C1NC(=Nc2ccc(Cl)cc2)/C(=C/c2ccco2)S1 | 17.8 µM [rising, single point] | –
CN(C)S(=O)(=O)c1ccc(C(=O)Nc2nnc(-c3ccc4c(c3)CCCC4)o2)cc1 | – | 3.16 µM [rising, full curve]
Cc1ccc(C)c(N2CCN(CCCNC(=O)c3cnn(-c4ccccc4Cl)c3C3CCN(C(=O)OC(C)(C)C)CC3)CC2)c1 | – | 15.8 µM [falling, single point]
CC1CCCCC1NC(=O)COC(=O)/C=C/c1ccc2c(c1)OCO2 (stereo not drawn) | 0.0501 µM [falling, full curve, poor fit] | –
Cc1cc(C)c(NC(=O)Cn2c(=O)n(-c3ccc(CC(=O)NCC4CCCO4)cc3)c(=O)c3ccccc32)c(C)c1 (stereo not drawn) | 31.6 µM [falling, single point] | 35.5 µM [falling, single point]
Cc1cc(CC(C)C)n(-c2nc3ccccc3c(=O)n2OCC(N)=O)n1 | – | 35.5 µM [rising, single point]
Cc1ccc(Cl)cc1N1CCN(Cc2nc3c(c(=O)[nH]c(=O)n3C)n2Cc2ccccc2F)CC1 | 35.5 µM [falling, single point] | 22.4 µM [falling, single point]
CC(C)(C)c1ccc(C(=O)NNC(=S)NCC2CCCO2)cc1 (stereo not drawn) | 15.8 µM [rising, single point] | 22.4 µM [rising, single point]
Clc1cccc(-c2ccc(/C=N/n3cnnc3)o2)c1Cl | 3.16 µM [falling, full curve] | 3.98 µM [falling, full curve]
CN1C(=O)/C(=C/c2cn(CC(=O)N3CCCCC3)c3ccccc23)c2ccccc21 | 14.1 µM [rising, single point] | 15.8 µM [rising, single point]
COC(=O)c1ccc(CSc2nc3c([nH]c4ccccc43)c(=O)n2-c2ccc(Cl)cc2)o1 | – | 11.2 µM [falling, partial curve, poor fit]
CN(C)c1ccc(C(CNS(=O)(=O)c2ccc(F)cc2)c2c[nH]c3ccccc23)cc1 (stereo not drawn) | 35.5 µM [rising, single point] | 35.5 µM [rising, single point]
CCc1nnc(N/N=C/c2c(C)[nH]c3ccccc23)n1N | 0.112 µM [rising, full curve, poor fit] | –

Structure (SMILES) | AC50 [1] | AC50 [2]
CC1=NN(/C(=N\c2nnc(C)s2)Nc2ccc(C(C)(C)C)cc2)[C@H](c2ccc(C)cc2)S1 | – | 35.5 µM [rising, single point]
CC(C)(C)C(=O)/C(=C\c1ccc([N+](=O)[O-])cc1)n1cncn1 | 5.62 µM [falling, single point] | 3.55 µM [rising, partial curve]
COc1cccc(C(C)N(C)Cc2nc(-c3ccoc3)oc2C)c1 (stereo not drawn) | – | 4.47 µM [falling, partial curve, poor fit]
Cc1ccc(-c2nc(C)sc2CC(=O)Nc2nnc(C)s2)cc1 | 20 µM [falling, partial curve, poor fit] | –
CC1Cc2ccccc2N1S(=O)(=O)c1cccc(C(=O)c2nccn2C)c1 (stereo not drawn) | – | 35.5 µM [rising, single point]
CC(=O)c1ccc(CCCCCCCCCC(=O)O)s1 | – | 5.62 µM [falling, single point]
CCCOc1ccc(C(O)(CCC)CCN2CCCCC2)cc1 (stereo not drawn) | – | 11.2 µM [rising, partial curve, poor fit]
Cc1cccc(C)c1OCC(C)N (stereo not drawn) | 0.00794 µM [falling, full curve, poor fit] | 0.0112 µM [falling, full curve, poor fit]
CC(=O)N(C(C)=O)N1C(=O)c2cccc3c(N4CCOCC4)ccc(c23)C1=O | – | 15.8 µM [rising, single point]
c1cncc(-c2nc(-c3ccc4c(c3)OCO4)cs2)c1 | – | 0.178 µM [falling, partial curve]
CCc1ccc(CNc2ncnc3c2nc2n3CCCC2)cc1 | 10 µM [falling, partial curve] | –
O=C(COC(=O)/C=C/c1ccc(OC(F)F)cc1)NCc1cccs1 | – | 6.31 µM [falling, single point]
COc1ccc(-c2nn(-c3ccccc3)cc2/C=N/Nc2ccc3ccccc3n2)cc1OC | 31.6 µM [rising, single point] | 35.5 µM [rising, single point]
Clc1ccccc1SCc1nc2ccccc2[nH]1 | – | 12.6 µM [rising, partial curve, poor fit]
CC(C)CCNC(=S)Nc1ccc2nc3n(c(=O)c2c1)CCCCC3 | – | 12.6 µM [rising, single point]
Cc1ccc(OCc2ccc(C(=O)O)o2)c([N+](=O)[O-])c1 | – | 0.112 µM [rising, full curve]
COc1ccc(C2=NO[C@@H]3[C@@H]4C[C@@H]([C@H]5C(=O)N(C)C(=O)[C@@H]45)[C@H]23)cc1 | 35.5 µM [rising, single point] | –
CCOc1cc(Br)ccc1S(=O)(=O)N1CCC(C(N)=O)CC1 | 17.8 µM [rising, partial curve, poor fit] | 0.0562 µM [rising, partial curve, poor fit]
O=C(c1ccc(CS(=O)(=O)Cc2ccc(Cl)cc2)o1)N1CCCC1 | – | 12.6 µM [rising, single point]
